According to patent US20250205259A1, “CLASS OF 7-((FIVE-MEMBERED HETEROCYCLIC)METHYL)-8-CARBOXYLIC ACID-BENZO CYCLIC BORATE DERIVATIVES AND USES THEREOF” (priority 2022, published 2025):
Some of these results come from one statement about several compounds together.

Protein sequences, listed by entry. Tags and fused reporters are not part of them. Residues count along the entry.
UniProt C7C422, 29-270 V88L/M154L: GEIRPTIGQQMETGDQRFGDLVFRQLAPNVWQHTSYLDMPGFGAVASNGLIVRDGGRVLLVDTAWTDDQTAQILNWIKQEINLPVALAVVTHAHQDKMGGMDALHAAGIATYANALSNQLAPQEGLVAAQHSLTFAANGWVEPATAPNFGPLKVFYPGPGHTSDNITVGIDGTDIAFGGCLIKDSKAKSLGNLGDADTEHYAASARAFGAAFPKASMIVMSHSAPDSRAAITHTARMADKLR

What was measured:
SHV-12 = target: T1, SHV-12 (UniProt P0AD64, L31Q/G234S/E235K, species not given); assay: Inhibitory activity on SBL, fluorescent substrate FC-5; assay type: biochemical; conditions: comparison in words
T1 sequence (P0AD64 1-286 L31Q/G234S/E235K): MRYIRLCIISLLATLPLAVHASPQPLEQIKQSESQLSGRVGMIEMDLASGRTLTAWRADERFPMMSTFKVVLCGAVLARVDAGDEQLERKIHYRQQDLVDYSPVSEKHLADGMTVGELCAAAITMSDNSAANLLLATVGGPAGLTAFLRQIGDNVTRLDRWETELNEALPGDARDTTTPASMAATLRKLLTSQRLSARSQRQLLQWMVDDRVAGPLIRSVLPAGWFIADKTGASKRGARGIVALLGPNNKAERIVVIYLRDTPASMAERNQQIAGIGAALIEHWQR

NDM-5 = NDM-5 (Klebsiella pneumoniae, UniProt C7C422, M154L/V88L); assay: Inhibitory activity on MBL, fluorescent substrate FC-5; assay type: biochemical; conditions: read-out: inhibitory activity at a nanomolar-level on NDM-5

| Compound | inhibitory activity on SHV-12 compared to control drugs (SHV-12) | IC50 (NDM-5) [nM] |
| --- | --- | --- |
| NS(=O)(=O)NCc1cnn(Cc2ccc3c(c2C(=O)O)OB(O)CC3)c1 [Compound 36] | lower than that of avibactam and tazobactam |  |
| N=C(N)NCCc1cn(Cc2ccc3c(c2C(=O)O)OB(O)CC3)nn1 [Compound 10] | lower than that of avibactam and tazobactam |  |
| NC1(c2cn(Cc3ccc4c(c3C(=O)O)OB(O)CC4)nn2)CC1 [Compound 41] | lower than that of avibactam and tazobactam |  |
| CC(N)c1cnn(Cc2ccc3c(c2C(=O)O)OB(O)CC3)c1 (stereo not drawn) [Compound 39] | lower than that of avibactam and tazobactam |  |
| N=C(N)Nc1cnn(Cc2ccc3c(c2C(=O)O)OB(O)CC3)c1 [Compound 38] | lower than that of avibactam and tazobactam |  |
| Nc1ncc(-c2cn(Cc3ccc4c(c3C(=O)O)OB(O)CC4)nn2)cn1 [Compound 61] | lower than that of avibactam and tazobactam |  |
| O=C(O)c1c(Cn2cc3c(n2)CNC3)ccc2c1OB(O)CC2 [Compound 56-Na] |  | < 1000 |
| N=C(N)NCc1ccc(-c2cn(Cc3ccc4c(c3C(=O)O)OB(O)CC4)nn2)cc1 [Compound 64] | lower than that of avibactam and tazobactam |  |
| N=C(N)NCCc1cnn(Cc2ccc3c(c2C(=O)O)OB(O)CC3)c1 [Compound 50] | lower than that of avibactam and tazobactam |  |
| NC1CN(Cc2cnn(Cc3ccc4c(c3C(=O)O)OB(O)CC4)c2)C1 [Compound 75] | lower than that of avibactam and tazobactam |  |
| O=C(O)c1c(Cn2cc3c(n2)CNC3)ccc2c1OB(O)[C@H]1C[C@@H]21 [Compound 54] | lower than that of avibactam and tazobactam |  |
| N[C@H]1CC(=O)N(Cc2ccc3c(c2C(=O)O)OB(O)CC3)C1 [Compound 45] | lower than that of avibactam and tazobactam |  |
